Source: patent US20180369373A1 (INNATE PHARMA, published 2018)
No constants are given. Whether binding was seen depends on the method and setting. Some results given as binding are weak or reduced against the parent protein; the word gives no strength.

The chains behind the UniProt entries cited, without tags or fusion partners. Where a name states a change or a piece, a line headed by the entry shows the natural chain unless it says otherwise.
UniProt O76036: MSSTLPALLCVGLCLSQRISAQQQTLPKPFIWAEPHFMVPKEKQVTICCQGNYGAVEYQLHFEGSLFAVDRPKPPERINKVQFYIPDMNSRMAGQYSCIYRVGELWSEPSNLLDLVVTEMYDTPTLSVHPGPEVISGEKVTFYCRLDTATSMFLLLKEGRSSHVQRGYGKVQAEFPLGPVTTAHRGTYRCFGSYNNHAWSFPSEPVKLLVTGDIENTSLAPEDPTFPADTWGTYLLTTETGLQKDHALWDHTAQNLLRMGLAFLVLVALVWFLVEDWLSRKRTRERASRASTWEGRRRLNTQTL

Target: Human NKp46-His recombinant protein (human) (UniProt O76036)
Experiment: western blot, reducing SDS-PAGE, 100, 50 and 10 ng of protein loaded

B1: 8E5B antibody (antibody, mouse IgG1, V domains shown)
VH: EIQLQQSGAELVKPGASVKLSCTASGFNIKDTYFHWVKQRPEQGLEWIGRIDPANGNTKYDPKFHDKATIIADISSNTAYLQFSSLTSEDTAVYYCAANRYGYWGQGTTLTVSS
VL: DIVMTQAAPSIPVTPGESVSISCRSSKSLLYINGNTHLFWFLQRPGQSPQLLIYRMSNLASGVPDRFSGSGSGTAFTLRISRVEAEDVGVYYCMQHLEYPFTFGSGTKLEIK
notes: Mouse monoclonal antibody; also called 8E5-B clone; monoclonal antibody 8E5B
binding: binds
